Results reported in the supplement of paper PMC5355238.
Several values for one entry are separate records, joined by “and”; a condition that tells them apart may be missing. Identical values can stand only once. Counter-ions that a name gives are not always drawn. Some of the results follow. Single values are uncertain, as repeats are few or missing.

Test system: Reh
Assay: S-phase gammaH2AX median, Z-score vs plate median (drug alone); higher = more S-phase DNA damage
Conditions: MK1775 concentration 0 nM; 10 µM; 4 h

Row | Compound | S-phase gammaH2AX median (Z-score)
1 | C[C@@H]1CCN(C(=O)CC#N)C[C@@H]1N(C)c1ncnc2[nH]ccc12 | 0.194 and 0.0669
2 | COc1cc2c(cc1C(F)(F)F)N(C(=O)Nc1cc(F)cc(-c3cccnc3)c1)CC2 | -0.0504
3 | CCC(C)N(C)C(=O)c1cc2ccccc2c(-c2ccccc2Cl)n1 (stereo not given) | -0.0194
4 | Nc1nc2ccc(Cl)cc2c2nc(-c3ccco3)nn12 | 0.28
5 | NCCCCCCCCCCN [1,10-Diaminodecane] | 0.0409
6 | OCCN1CCN(CCCN2c3ccccc3Sc3ccc(Cl)cc32)CC1 [Perphenazine] | -0.21
7 | COC1=CC(c2cc3ccccc3[nH]2)=N/C1=C\c1[nH]c(C)cc1C [Obatoclax mesylate (GX15-070)] | 1.2
8 | O=c1oc(Cl)c(Cl)c2ccccc12 [3,4-Dichloroisocoumarin] | -0.0598
9 | COc1cc(OC)c(C=C2C(=O)Nc3ccccc32)c(OC)c1 | -0.0615
10 | CN(NC(=O)CC(=O)NN(C)C(=S)c1ccccc1)C(=S)c1ccccc1 [Elesclomol] | 2.03
11 | CCN(CC)CC#CCOC(=O)C(O)(c1ccccc1)C1CCCCC1 (stereo not given) [Oxybutynin Chloride] | 0.0544
12 | O=C(NCCNCC(O)COc1ccc(O)cc1)N1CCOCC1 (stereo not given) [Xamoterol hemifumarate] | 0.04
13 | N=C(N)c1ccccc1 [Benzamidine hydrochloride] | 0.0738
14 | CCN(Cc1ccncc1)C(=O)C(CO)c1ccccc1 (stereo not given) [Tropicamide] | 0.0133
15 | COc1ccc(C(=O)NCc2cccnc2)cc1C(=O)NCc1cccnc1 [Picotamide] | 0.175
16 | O=Nc1c(-c2c(O)[nH]c3ccccc23)[nH]c2ccccc12 [Indirubin-3'-oxime] | -0.28
17 | COc1ccc2[nH]cc(CCNC(C)=O)c2c1 [Melatonin] | -0.0568
18 | CCCCC/C=C\C[C@@H](O)/C=C/c1cccc(C[C@@H](O)CCCCO)n1 | -0.601
19 | C=CC[C@@H]1/C=C(\C)C[C@H](C)C[C@H](OC)[C@H]2O[C@@](O)(C(=O)C(=O)N3CCCC[C@H]3C(=O)O[C@H](/C(C)=C/[C@@H]3CC[C@@H](O)[C@H](OC)C3)[C@H](C)[C@@H](O)CC1=O)[C@H](C)C[C@@H]2OC [FK-506 (Tacrolimus)] | -0.0824
20 | COc1nc(C)nc(Cl)c1NC1=NCCN1 [Moxonidine hydrochloride] | 0.0237
21 | COc1cc2nc(N3CCN(C(=O)c4ccco4)CC3)nc(N)c2cc1OC [Prazosin hydrochloride] | 0.156
22 | NCCS(=O)(=O)O [Taurine] | 0.147

Row | Compound | S-phase gammaH2AX median (Z-score)
23 | N#CC(C#N)=C(N)/C(C#N)=C/c1ccc(O)cc1 [Tyrphostin AG 112] | 0.147
24 | O=c1c(O)c(-c2cc(O)c(O)c(O)c2)oc2cc(O)cc(O)c12 [Myricetin] | 0.0639
25 | Cc1cccc(/C=C/c2ccccc2)n1 | -0.42
26 | CCn1cc(C(=O)O)c(=O)c2ccc(C)nc21 [Nalidixic acid sodium] | 0.00946
27 | C#CCN(C)Cc1ccccc1 [Pargyline hydrochloride] | 0.267
28 | O=c1[nH]c2ccccc2c2ccccc12 [6(5H)-Phenanthridinone] | 0.464
29 | CCN(CC)CCNC(=O)c1cc(S(C)(=O)=O)ccc1OC [Tiapride hydrochloride] | 0.501
30 | O=C(CCCN1CC=C(n2c(=O)[nH]c3ccccc32)CC1)c1ccc(F)cc1 [Droperidol] | -0.0724
31 | N=C(N)SCCc1cccc(CCSC(=N)N)c1 [1,3-PBIT dihydrobromide] | 0.0828
32 | O=c1cc(-c2ccc(O)cc2)oc2cc(O)cc(O)c12 [Apigenin] | 0.00777
33 | N=C1Sc2ccccc2C2=NCCCN12 | -0.0118
34 | CN(C)CCN(Cc1cccs1)c1ccccn1 [Methapyrilene hydrochloride] | 0.151
35 | NC(=O)N1c2ccccc2C=Cc2ccccc21 [Carbamazepine] | -0.00971
36 | CCc1cccc(N(C)C(=N)Nc2cccc3ccccc23)c1 | 0.0155
37 | Nc1nc(F)nc2c1ncn2[C@@H]1O[C@H](CO)[C@@H](O)[C@@H]1O [Fludarabine (Fludara)] | 3.83
38 | O=C(NCCS(=O)(=O)c1ccc(C(F)(F)F)cn1)c1ccc(Cl)cc1 | 0.101
39 | CC(C)CC(=O)Nc1n[nH]c2c1CN(C(=O)C1CCN(C)CC1)C2(C)C | -0.123
40 | Nc1nc(Cl)nc2c1ncn2[C@@H]1O[C@H](CO)[C@@H](O)[C@@H]1F [Clofarabine] | 6.75
41 | CC(N)=O [Acetamide] | 0.0563
42 | CN1CC[C@H](c2c(O)cc(O)c3c(=O)cc(-c4ccccc4Cl)oc23)[C@H](O)C1 [Flavopiridol hydrochloride] | 0.012
43 | CN(C)Cc1c(C(=O)NCCOc2ccc(C(=O)NO)cc2)oc2ccccc12 | 0.101
44 | O=C1CN2Cc3c(ccc(Cl)c3Cl)N=C2N1 [Anagrelide hydrochloride] | -0.0684

Row | Compound | S-phase gammaH2AX median (Z-score)
45 | O=C1CN2Cc3c(ccc(Cl)c3Cl)N=C2N1 [Anagrelide] | -0.00271
46 | FC(F)(F)c1ccccc1-n1ccnc1 [1-[2-(Trifluoromethyl)phenyl]imidazole] | -0.447
47 | CCCCOC(=O)NS(=O)(=O)c1sc(CC(C)C)cc1-c1ccc(Cn2c(CC)nc3c(C)cc(C)nc32)cc1 | -0.205
48 | CO/N=C(\C(=O)N[C@@H]1C(=O)N2C(C(=O)O)=C(CSc3nc(=O)c(O)nn3C)CS[C@H]12)c1csc(N)n1 [Ceftriaxone sodium] | 0.068
49 | CCCCN1CCC(COC(=O)c2cc(Cl)c(N)c3c2OCCO3)CC1 | 0.0133
50 | COc1cccc(NC(=O)/C=C/c2ccc(Cl)cc2)c1 | 0
51 | Oc1ccccc1O [Pyrocatechol] | -0.126
52 | CC(C)(C)NC[C@H](O)COc1nsnc1N1CCOCC1 [S(-)-Timolol maleate] | 0.0868
53 | C[C@]12CCC(=O)C=C1CC[C@@H]1[C@@H]2[C@@H](O)C[C@@]2(C)[C@H]1CC[C@]2(O)C(=O)COC(=O)CCC(=O)O [Hydrocortisone 21-hemisuccinate sodium] | 0.154
54 | Cc1ccc(C(=O)Nc2ccc(CN3CCN(C)CC3)c(C(F)(F)F)c2)cc1C#Cc1cnc2cccnn12 | -0.00193
55 | O=C1CCC(c2ccc(-n3ccnc3)cc2)=NN1 [Imazodan] | -0.135
56 | CCNC(=O)N1CCN(CCCC(c2ccc(F)cc2)c2ccc(F)cc2)CC1 [Amperozide hydrochloride] | -0.113
57 | Fc1ccc(C(OCCCc2cnc[nH]2)c2ccc(F)cc2)cc1 | 0.0756
58 | CC(=O)c1ccc(S(=O)(=O)NC(=O)NC2CCCCC2)cc1 [Acetohexamide] | 0.0291
59 | CCSC(=N)N [S-Ethylisothiourea hydrobromide] | 0.0819
60 | Nc1ncn([C@@H]2O[C@H](CO)[C@@H](O)[C@H]2O)c(=O)n1 [Azacitidine (Vidaza)] | 0.0568
61 | Nc1ncn([C@@H]2O[C@H](CO)[C@@H](O)[C@H]2O)c(=O)n1 [5-azacytidine] | -0.0155
62 | CC(COc1ccccc1)N(CCCl)Cc1ccccc1 (stereo not given) [Phenoxybenzamine hydrochloride] | -0.0777
63 | CCCNC(C)C(=O)Nc1ccccc1C (stereo not given) [Prilocaine hydrochloride] | 0.0331
64 | CNc1ncnc2c1ncn2[C@H]1C[C@H](OP(=O)(O)O)[C@@H](COP(=O)(O)O)O1 | -0.0733
65 | O=C(Nc1ccc(OC(F)(F)F)cc1)c1sccc1NCc1ccnc2ccccc12 | 0.08
66 | CNC(=O)c1cc2c(cn1)[nH]c1ccccc12 [N-Methyl-beta-carboline-3-carboxamide] | 0.756

Row | Compound | S-phase gammaH2AX median (Z-score)
67 | CCC(=O)N1CCN(C(=O)c2ccccc2)CC1 | 0.0661
68 | c1ccc(C2CN3CCSC3=N2)cc1 (stereo not given) [Tetramisole hydrochloride] | 0.24
69 | CC(COc1ccc(/C=C/c2ccccc2)cc1)[N+](C)(C)C (stereo not given) | -0.447
70 | Cn1c(=O)c2nc[nH]c2n(C)c1=O [Theophylline] | 0.327
71 | CN(C)CCC(c1ccc(Cl)cc1)c1ccccn1 (single isomer, unassigned; (+)) [(+)-Chlorpheniramine maleate] | 0.0816
72 | O=C(N[C@@H](Cc1ccccc1)C(=O)CCl)OCc1ccccc1 [Z-L-Phe chloromethyl ketone] | 0.893
73 | CC(C)(C)c1[nH]cnc1/C=c1\[nH]c(=O)/c(=C/c2ccccc2)[nH]c1=O [NPI-2358 (Plinabulin)] | 0.053
74 | Cc1scc2c1N(C(=O)CN1CCN(C)CC1)c1ccccc1NC2=O [Telenzepine dihydrochloride] | 0.788
75 | O=C(O)C1CCCN(CCC=C(c2ccccc2)c2ccccc2)C1 (stereo not given) | 0.0601
76 | CC(=O)O[C@]1(C(C)=O)CC[C@H]2[C@@H]3C=C(Cl)C4=CC(=O)[C@@H]5C[C@@H]5[C@]4(C)[C@H]3CC[C@@]21C [Cyproterone acetate] | -0.0641
77 | N[C@@H]1CONC1=O [D-Cycloserine] | -0.0233
78 | OCC1OC(n2cnc3c(NC4CCCCC4)ncnc32)C(O)C1O (stereo not given) [N6-Cyclohexyladenosine] | 0.0583
79 | N[C@@H](Cc1c[nH]c2ccc(O)cc12)C(=O)O [5-Hydroxy-L-tryptophan] | 0.161
80 | CC(C)n1nc(-c2ccc3oc(N)nc3c2)c2c(N)ncnc21 | -0.104
81 | Clc1ccc(Cn2c(CN3CCCC3)nc3ccccc32)cc1 [Clemizole hydrochloride] | 0.144
82 | O=C(O)/C=C/c1ccc(O)c(O)c1 [Caffeic Acid] | 0.0233
83 | CCCCc1nc2cc(/C=C/C(=O)NO)ccc2n1CCN(CC)CC [SB939 (Pracinostat)] | 0.33
84 | CC(=O)Oc1ccccc1C(=O)O [Acetylsalicylic acid] | -0.033
85 | CC1=C(/C=C/C(C)=C/C=C/C(C)=C/C=C/C=C(C)/C=C/C=C(C)/C=C/C2=C(C)C(=O)[C@@H](O)CC2(C)C)C(C)(C)C[C@H](O)C1=O [Astaxanthin] | -0.0447
